{
  "sequences": {"note": "Amino acid sequences for entries named in this document (tags omitted). A change or cut given only in a name is not applied to a line headed by its entry.", "UniProt P40261": "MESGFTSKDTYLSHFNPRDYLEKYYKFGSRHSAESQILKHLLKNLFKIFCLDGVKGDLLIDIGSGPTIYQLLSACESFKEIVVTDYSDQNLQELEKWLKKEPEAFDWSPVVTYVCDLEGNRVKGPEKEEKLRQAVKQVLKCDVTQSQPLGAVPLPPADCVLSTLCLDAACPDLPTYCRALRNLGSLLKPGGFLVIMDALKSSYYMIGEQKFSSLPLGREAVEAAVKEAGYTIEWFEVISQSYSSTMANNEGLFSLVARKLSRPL", "UniProt P21964": "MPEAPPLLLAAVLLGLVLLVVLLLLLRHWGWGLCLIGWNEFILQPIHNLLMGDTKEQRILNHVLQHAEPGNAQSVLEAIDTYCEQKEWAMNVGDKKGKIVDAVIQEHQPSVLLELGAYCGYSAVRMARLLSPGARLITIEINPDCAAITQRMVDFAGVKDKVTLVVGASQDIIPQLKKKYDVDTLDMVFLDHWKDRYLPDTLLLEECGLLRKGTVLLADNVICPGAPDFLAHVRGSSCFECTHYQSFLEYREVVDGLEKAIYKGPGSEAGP", "UniProt P50135": "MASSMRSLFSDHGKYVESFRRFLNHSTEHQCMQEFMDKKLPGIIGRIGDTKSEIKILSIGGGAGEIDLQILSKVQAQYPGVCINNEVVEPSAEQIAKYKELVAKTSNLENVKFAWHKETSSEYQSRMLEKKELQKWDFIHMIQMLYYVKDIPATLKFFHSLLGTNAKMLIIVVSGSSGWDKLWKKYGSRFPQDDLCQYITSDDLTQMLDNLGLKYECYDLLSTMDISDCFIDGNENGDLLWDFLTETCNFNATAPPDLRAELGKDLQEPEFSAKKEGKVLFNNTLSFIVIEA", "UniProt P11086": "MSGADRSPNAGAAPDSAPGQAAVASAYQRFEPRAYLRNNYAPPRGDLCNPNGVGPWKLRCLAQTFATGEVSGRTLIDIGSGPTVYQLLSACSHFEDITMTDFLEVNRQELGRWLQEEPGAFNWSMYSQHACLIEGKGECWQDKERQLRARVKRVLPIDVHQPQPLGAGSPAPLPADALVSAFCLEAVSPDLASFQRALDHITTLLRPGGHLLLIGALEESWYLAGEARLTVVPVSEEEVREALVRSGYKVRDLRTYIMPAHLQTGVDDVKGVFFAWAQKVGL"},
  "source": "PubChem BioAssay (NCATS)",
  "key": {"[1]": {"assay": "qHTS Assay for Inhibitors of PDE-IV (AID 607)", "conditions": "HEK293 ACTOne CNG channel cells, membrane potential fluorescence; measured here: parental cell counter-screen", "procedure,_shortened": "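Cell-based read-out of cAMP via a modified cyclic nucleotide-gated channel and membrane potential dye (535/590 nm) in HEK293 cells expressing PDE4 endogenously. Compounds tested up to 22.9 uM final; 100 uM RO 20-1724 reference.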"}, "[2]": {"assay": "qHTS Assay for Lipid Storage Modulators (AID 1519)", "conditions": "Drosophila S3 cells, BODIPY lipid droplet/cell ratio, laser cytometry, cells loaded with oleic acid", "procedure,_shortened": "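Cells seeded at 5,000 per well were treated with compounds over a concentration series and loaded with oleic acid (400 uM, as added). Lipid droplet fluorescence (488 nm excitation, 500-530 nm channel) was read by laser-scanning cytometry and normalized to 20 uM Triacsin C.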"}, "[3]": {"assay": "qHTS Assay for Modulators of Human Peripheral Myelin Protein 22 (PMP22) Expression/Activity (AID 1967)", "conditions": "Cell-based PMP22 reporter, dual-color luciferase ratio", "procedure,_shortened": "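Engineered MSC80 cells, Pmp22-promoter green and EF-alpha red luciferase reporters; 24h compound treatment at 37 °C. Concentration-response fits on green, red and ratio signals, each overlap-corrected, with %Activity normalized to untreated wells.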"}, "[4]": {"assay": "qHTS Validation Assay to Find Inhibitors of Chronic Active B-Cell Receptor Signaling (AID 485345)", "conditions": "ABC-DLBCL cells, chronic BCR signaling reporter", "procedure,_shortened": "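TMD8 ABC-DLBCL cells with dox-inducible green luciferase–IκBα fusion and red native luciferase; compounds 46 uM–3 nM, 4 h at 37C with doxycycline in 0.5% FBS IMDM. Green/red ratio normalized to basal and 10 uM MG-132.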"}, "[5]": {"assay": "qHTS assay for small molecule antagonists of peroxisome proliferator-activated receptor delta signaling (AID 588535);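 as to all read-outs here: cells co-treated with a PPAR-delta agonist as stimulator during compound exposure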", "conditions": "HEK293T PPARd-UAS-bla, beta-lactamase FRET ratio, 18 h; 460 nm channel", "procedure,_shortened": "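GeneBLAzer PPAR-delta-UAS-bla HEK293T cells in medium with 2% charcoal/dextran FBS were preincubated 5 hrs at 37 C, then given compounds, incubated 18 hrs at 37 C, and read by CCF4 beta-lactamase fluorescence; IC50 from Hill fits.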"}, "[6]": {"assay": "qHTS assay for small molecule antagonists of peroxisome proliferator-activated receptor gamma signaling (AID 588537)", "conditions": "HEK293 PPARg-UAS-bla, beta-lactamase ratio, antagonist mode; measured here: W460 blue channel", "procedure,_shortened": "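PPAR-gamma-UAS-bla HEK293 cells (3000/well, 1% charcoal/dextran-stripped FBS) were preincubated 6-6.5 h at 37 C, given titrated compounds, then stimulated with 50 nM rosiglitazone for 16 h. Beta-lactamase activity was read with CCF4 dye; IC50 came from Hill fits.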"}, "[7]": {"assay": "qHTS assay for small molecule agonists of retinoid X receptor alpha signaling (AID 588544)", "conditions": "HEK293T RXRa-UAS-bla, beta-lactamase reporter, 18 h; 530 nm emission"}, "[8]": {"assay": "qHTS assay for small molecule antagonists of retinoid X receptor alpha signaling (AID 588546); as to all read-outs here: % is scaled to controls: 0 for no effect and ±100 for the full control effect", "conditions": "HEK293T RXRa-UAS-bla, beta-lactamase ratio, antagonist mode; measured here: W530 green channel, cytotoxicity proxy", "procedure,_shortened": "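Beta-lactamase reporter inhibition, read as CCF4 fluorescence ratio (ex 405, em 460/530 nm) after 2 h at RT. HEK293T UAS-bla cells, 2500/well, were stimulated with 9-cis-RA at 500 or 100 nM final alongside test compound for 18 h at 37 C.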"}, "[9]": {"biological_target": "Nicotinamide N-methyltransferase (Homo sapiens) (UniProt P40261)", "assay": "Confirmatory Screen for Target Class Profiling of Small Molecule Inhibitors of Methyltransferases (AID 1745852)", "conditions": "MTase-Glo luminescence, SAH detection, recombinant enzyme; measured here: NNMT inhibition potency"}, "[10]": {"assay": "A High-Content qHTS Against Drug Library for the Identification of Small Molecules that Inhibit DYT1 Early Onset Primary Dystonia-Associated Cell Pathology (AID 1645839)", "conditions": "HEK293 Flp-In EGFP-delE TorsinA, punctate imaging, 48 h; measured here: cell count cytotoxicity", "procedure,_shortened": "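Readout: %pathology, the punctate EGFP-TorsinA distribution from imaging, as the primary channel and cell count as the toxicity counterscreen. HEK293 Flp-In cells expressing delE TorsinA were induced with tetracycline and treated with compound for 48 h.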"}, "[11]": {"assay": "qHTS drug screen for cell cycle checkpoint inhibitors in PARPi-resistant BRCA-mutant ovarian cancer cell lines. (AID 1963452)", "conditions": "PEO1/OlaR viability, CellTiter-Glo luminescence, 96 h", "procedure,_shortened": "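PEO1, PEO4 and PEO1/OlaR ovarian cancer cells, 600 per well, exposed 96 h at 37C to a dilution series. Viability read by CellTiter-Glo luminescence, normalized to DMSO and empty wells; activity summarized as Z-AUC.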"}, "[12]": {"assay": "qHTS for identification of novel therapeutic agents for treatment of microphthalmiaassociated transcription factor (MiT) renal cell carcinoma (RCC) (AID 1963991)", "conditions": "CellTiter-Glo, 48 h; for z-score: stronger effect = lower value", "procedure,_shortened": "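Curves over 11 concentrations were fitted to CellTiter-Glo luminescence, scaled between empty wells (0%) and DMSO (100%) viability. Cells were UOK109, UOK124 and UOK145 TFE3-fusion RCC lines at 500/well, exposed 48 hours at 37 C.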"}, "[13]": {"biological_target": "Catechol O-methyltransferase (Homo sapiens) (UniProt P21964)", "assay": "Confirmatory Screen for Target Class Profiling of Small Molecule Inhibitors of Methyltransferases (AID 1745852)", "conditions": "MTase-Glo luminescence, SAH detection, recombinant enzyme; measured here: COMT inhibition potency"}, "[14]": {"biological_target": "Histamine N-methyltransferase (Homo sapiens) (UniProt P50135)", "assay": "Confirmatory Screen for Target Class Profiling of Small Molecule Inhibitors of Methyltransferases (AID 1745852)", "conditions": "MTase-Glo luminescence, SAH detection, recombinant enzyme; measured here: HNMT inhibition potency"}, "[15]": {"biological_target": "Phenylethanolamine N-methyltransferase (Homo sapiens) (UniProt P11086)", "assay": "Confirmatory Screen for Target Class Profiling of Small Molecule Inhibitors of Methyltransferases (AID 1745852)", "conditions": "MTase-Glo luminescence, SAH detection, recombinant enzyme; measured here: PNMT inhibition potency"}, "[16]": {"conditions": "measured here: cell count channel max response"}, "[17]": {"conditions": "measured here: cell number channel AC50"}, "[18]": {"conditions": "measured here: lipid (BODIPY) channel AC50"}, "[19]": {"conditions": "measured here: lipid channel max response"}, "[20]": {"conditions": "measured here: green reporter channel AC50, mouse Pmp22 promoter in mouse Schwann cells"}, "[21]": {"conditions": "measured here: red reporter channel AC50, EF-alpha promoter control reporter in MSC80 mouse Schwann cells"}, "[22]": {"conditions": "measured here: CBG/CBR ratio read-out"}, "[23]": {"conditions": "measured here: CBR control luciferase (viability counter)"}},
  "note": "Values joined by “and” are separate entries in the source; they are usually repeats but may differ in a detail not shown here. Equal entries are not always repeated. Some of the results follow. Further columns of the screen follow, without active or inactive calls. For some assays here: Most of these compounds were active or inconclusive in the main read-out, so they are no random draw. For some assays here: The note in brackets gives the kind of curve behind each potency; many fits are weak.",
  "data": [
    {"smiles": "CCCc1c(-c2ccc(O)cc2)nn(-c2ccc(O)cc2)c1-c1ccc(O)cc1", "values": [
      {"measurement": "AC50", "setting": "[1]", "result": "15.8 µM [rising, single point]"},
      {"measurement": "max response", "setting": "[2]; [16]", "result": "98.5% and -21.8%"},
      {"measurement": "AC50", "setting": "[2]; [17]", "result": "0.355 µM [falling, full curve, poor fit]"},
      {"measurement": "AC50", "setting": "[2]; [18]", "result": "0.355 µM [falling, full curve, poor fit]"},
      {"measurement": "max response", "setting": "[2]; [19]", "result": "126% and -20.3%"},
      {"measurement": "AC50", "setting": "[3]; [20]", "result": "53.6 µM [falling, partial curve]"},
      {"measurement": "AC50", "setting": "[3]; [21]", "result": "42.6 µM [falling, partial curve]"},
      {"measurement": "AC50", "setting": "[4]; [22]", "result": "16.4 µM [falling, partial curve]"},
      {"measurement": "AC50", "setting": "[4]; [23]", "result": "16.4 µM [falling, single point]"},
      {"measurement": "max response", "setting": "[5]", "result": 84.5, "unit": "%"},
      {"measurement": "AC50", "setting": "[6]", "result": "31.6 µM [falling, partial curve, poor fit]"},
      {"measurement": "max response", "setting": "[7]", "result": -29.2, "unit": "%"},
      {"measurement": "max response", "setting": "[8]", "result": -48.4, "unit": "%"},
      {"measurement": "IC50", "setting": "[9]", "result": "27.3 µM [falling, partial curve]"}
    ]},
    {"smiles": "CNCCCC12CCC(c3ccccc31)c1ccccc12", "values": [
      {"measurement": "max response", "setting": "[2]; [16]", "result": 44.1, "unit": "%"},
      {"measurement": "AC50", "setting": "[2]; [17]", "result": "39.8 µM [rising, single point]"},
      {"measurement": "AC50", "setting": "[2]; [18]", "result": "39.8 µM [rising, single point]"},
      {"measurement": "max response", "setting": "[2]; [19]", "result": 54.4, "unit": "%"},
      {"measurement": "AC50", "setting": "[3]; [20]", "result": "21.3 µM [falling, full curve]"},
      {"measurement": "AC50", "setting": "[3]; [21]", "result": "23.9 µM [falling, full curve]"},
      {"measurement": "AC50", "setting": "[4]; [22]", "result": "23.1 µM [falling, partial curve]"},
      {"measurement": "AC50", "setting": "[4]; [23]", "result": "9.2 µM [falling, partial curve]"},
      {"measurement": "AC50", "setting": "[10]", "result": "10 µM [falling, partial curve, poor fit]"},
      {"measurement": "AC50", "setting": "[11]; measured here: PEO1 parental viability", "result": "17.4 µM [falling, single point]"},
      {"measurement": "AC50", "setting": "[11]; measured here: PEO4 viability", "result": "12.3 µM [falling, partial curve]"},
      {"measurement": "z-score", "setting": "[12]; TFE3-RCC UOK109 viability, measured here: UOK109 Z-AUC", "result": -0.112},
      {"measurement": "z-score", "setting": "[12]; TFE3-RCC viability, measured here: UOK124 Z-AUC", "result": -0.164},
      {"measurement": "AC50", "setting": "[12]; TFE3-RCC viability, measured here: UOK124 cell viability", "result": "23.5 µM [falling, partial curve]"},
      {"measurement": "z-score", "setting": "[12]; TFE3-RCC viability, measured here: UOK145 Z-AUC", "result": -0.119},
      {"measurement": "AC50", "setting": "[12]; TFE3-RCC viability, measured here: UOK145 cell viability", "result": "26.4 µM [falling, partial curve]"}
    ]},
    {"smiles": "N#C/C(=C\\c1ccc(O)c(O)c1)C(=O)NCCc1ccccc1", "values": [
      {"measurement": "max response", "setting": "[2]; [16]", "result": -60.1, "unit": "%"},
      {"measurement": "AC50", "setting": "[2]; [17]", "result": "39.8 µM [falling, partial curve, poor fit]"},
      {"measurement": "AC50", "setting": "[2]; [18]", "result": "31.6 µM [falling, partial curve, poor fit]"},
      {"measurement": "max response", "setting": "[2]; [19]", "result": -64.7, "unit": "%"},
      {"measurement": "AC50", "setting": "[3]; [21]", "result": "21.3 µM [falling, full curve]"},
      {"measurement": "AC50", "setting": "[4]; [22]", "result": "11.6 µM [falling, partial curve]"},
      {"measurement": "AC50", "setting": "[4]; [23]", "result": "18.4 µM [falling, single point]"},
      {"measurement": "IC50", "setting": "[13]", "result": "1.93 µM [rising, full curve]"},
      {"measurement": "IC50", "setting": "[9]", "result": "21.7 µM [falling, partial curve]"}
    ]},
    {"smiles": "CN(C)CCCn1cc(C2=C(c3c[nH]c4ccccc34)C(=O)NC2=O)c2ccccc21", "values": [
      {"measurement": "max response", "setting": "[2]; [16]", "result": 80.7, "unit": "%"},
      {"measurement": "AC50", "setting": "[2]; [17]", "result": "2.82 µM [rising, full curve]"},
      {"measurement": "AC50", "setting": "[2]; [18]", "result": "2 µM [rising, partial curve, poor fit]"},
      {"measurement": "max response", "setting": "[2]; [19]", "result": -38.5, "unit": "%"},
      {"measurement": "IC50", "setting": "[13]", "result": "21.5 µM [falling, partial curve]"},
      {"measurement": "IC50", "setting": "[14]", "result": "17.1 µM [falling, partial curve]"},
      {"measurement": "IC50", "setting": "[9]", "result": "24.1 µM [falling, partial curve]"},
      {"measurement": "IC50", "setting": "[15]", "result": "21.5 µM [falling, partial curve]"}
    ]}
  ]
}
